{"source": "paper PMC8958351", "about": "“Ubiquitylation of cyclin C by HACE1 regulates cisplatin‐associated sensitivity in gastric cancer” (Clinical and Translational Medicine, 2022)", "key": {"[1]": {"target": "T1, Flag‐tagged HACE1 (human) (UniProt Q8IYU2)", "T1 sequence": "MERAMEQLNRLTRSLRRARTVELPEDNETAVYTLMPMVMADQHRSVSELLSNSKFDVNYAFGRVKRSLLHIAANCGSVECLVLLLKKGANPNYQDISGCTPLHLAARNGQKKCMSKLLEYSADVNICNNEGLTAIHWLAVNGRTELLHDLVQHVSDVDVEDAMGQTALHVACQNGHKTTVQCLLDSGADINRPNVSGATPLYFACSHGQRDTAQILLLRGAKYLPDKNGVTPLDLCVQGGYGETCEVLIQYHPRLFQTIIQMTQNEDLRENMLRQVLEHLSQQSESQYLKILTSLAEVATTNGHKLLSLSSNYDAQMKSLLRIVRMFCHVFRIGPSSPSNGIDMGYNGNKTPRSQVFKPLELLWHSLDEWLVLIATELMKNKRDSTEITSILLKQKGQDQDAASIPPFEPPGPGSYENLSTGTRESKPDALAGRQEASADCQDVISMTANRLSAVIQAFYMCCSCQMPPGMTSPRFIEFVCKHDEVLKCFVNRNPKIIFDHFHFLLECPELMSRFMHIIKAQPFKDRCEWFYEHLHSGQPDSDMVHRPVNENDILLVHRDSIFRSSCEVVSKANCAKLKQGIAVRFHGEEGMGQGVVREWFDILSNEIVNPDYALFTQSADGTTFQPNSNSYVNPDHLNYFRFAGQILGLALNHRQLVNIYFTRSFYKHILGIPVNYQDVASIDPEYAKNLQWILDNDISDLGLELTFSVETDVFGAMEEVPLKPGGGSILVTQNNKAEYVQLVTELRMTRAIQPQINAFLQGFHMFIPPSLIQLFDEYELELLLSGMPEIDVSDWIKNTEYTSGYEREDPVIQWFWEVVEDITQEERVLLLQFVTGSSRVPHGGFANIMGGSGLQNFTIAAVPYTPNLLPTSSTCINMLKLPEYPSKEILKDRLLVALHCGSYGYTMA", "assay": "co-IP; HEK-293FT cells co-transfected; Flag-tagged HACE1 pulled down, HA-CCNC immunoblotted; with 10 μM cisplatin treatment"}, "[2]": {"target": "T1, Flag‐tagged HACE1 (human)", "assay": "co-IP; HEK-293FT cells co-transfected; Flag-tagged HACE1 pulled down, HA-CCNC immunoblotted; without cisplatin"}, "[3]": {"target": "Cyclin C (CCNC), yeast two-hybrid fusion (human) (UniProt P24863)", "assay": "two-hybrid; yeast two-hybrid; colony formation on SD-Leu-Trp-His-Ura (SD-4) selection media and plate assays for β-galactosidase activity"}, "[4]": {"target": "Cyclin C, endogenous (human (endogenous in HEK-293FT)) (UniProt P24863)", "assay": "co-IP; endogenous proteins in HEK-293FT cells; cyclin C pulled down with cyclin C-specific antibody, HACE1 immunoblotted; without cisplatin"}, "[5]": {"target": "Cyclin C, endogenous (human (endogenous in HEK-293FT)) (UniProt P24863)", "assay": "co-IP; endogenous proteins in HEK-293FT cells; cyclin C pulled down with cyclin C-specific antibody, HACE1 immunoblotted; with 10 μM cisplatin treatment"}, "[6]": {"target": "T2, GST‐HACE1 truncation, amino acids 1–257 (human) (UniProt Q8IYU2)", "T2 sequence": "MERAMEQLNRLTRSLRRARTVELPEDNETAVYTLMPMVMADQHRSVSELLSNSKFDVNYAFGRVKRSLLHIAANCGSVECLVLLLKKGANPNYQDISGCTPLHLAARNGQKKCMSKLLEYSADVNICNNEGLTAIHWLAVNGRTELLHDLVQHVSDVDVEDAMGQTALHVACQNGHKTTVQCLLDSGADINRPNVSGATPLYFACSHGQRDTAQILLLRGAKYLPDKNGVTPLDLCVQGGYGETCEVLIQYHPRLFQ", "assay": "pull-down; GST pull-down; purified GST-HACE1 proteins incubated with purified cyclin C-MBP-His for 6 h at 4°C in 50 mM Tris-Cl, 200 mM NaCl, 1 mM EDTA, 1% NP-40, 1 mM DTT, 10 mM MgCl2, 10 μg/ml BSA, pH 8.0; GST pulled down, cyclin C immunoblotted; both purified"}}, "note": "These are yes or no findings as the source states them, for the method shown. For part of these data: Binding seen in cells or lysates may run through a third protein. Some results given as binding are weak or reduced against the parent protein; the word gives no strength. For part of these data: Tags and fused reporters may be left off the sequences shown."}
{"molecule": "HA‐CCNC (from UniProt P24863 1-283)", "values": [{"measurement": "binding", "setting": "[1]", "value": "binds"}, {"measurement": "binding", "setting": "[2]", "value": "binds weakly"}]}
{"molecule": "HECT domain and ankyrin repeat‐containing E3 ubiquitin‐protein ligase 1 (HACE1), yeast two-hybrid fusion (enzyme, UniProt Q8IYU2 1-909) MERAMEQLNRLTRSLRRARTVELPEDNETAVYTLMPMVMADQHRSVSELLSNSKFDVNYAFGRVKRSLLHIAANCGSVECLVLLLKKGANPNYQDISGCTPLHLAARNGQKKCMSKLLEYSADVNICNNEGLTAIHWLAVNGRTELLHDLVQHVSDVDVEDAMGQTALHVACQNGHKTTVQCLLDSGADINRPNVSGATPLYFACSHGQRDTAQILLLRGAKYLPDKNGVTPLDLCVQGGYGETCEVLIQYHPRLFQTIIQMTQNEDLRENMLRQVLEHLSQQSESQYLKILTSLAEVATTNGHKLLSLSSNYDAQMKSLLRIVRMFCHVFRIGPSSPSNGIDMGYNGNKTPRSQVFKPLELLWHSLDEWLVLIATELMKNKRDSTEITSILLKQKGQDQDAASIPPFEPPGPGSYENLSTGTRESKPDALAGRQEASADCQDVISMTANRLSAVIQAFYMCCSCQMPPGMTSPRFIEFVCKHDEVLKCFVNRNPKIIFDHFHFLLECPELMSRFMHIIKAQPFKDRCEWFYEHLHSGQPDSDMVHRPVNENDILLVHRDSIFRSSCEVVSKANCAKLKQGIAVRFHGEEGMGQGVVREWFDILSNEIVNPDYALFTQSADGTTFQPNSNSYVNPDHLNYFRFAGQILGLALNHRQLVNIYFTRSFYKHILGIPVNYQDVASIDPEYAKNLQWILDNDISDLGLELTFSVETDVFGAMEEVPLKPGGGSILVTQNNKAEYVQLVTELRMTRAIQPQINAFLQGFHMFIPPSLIQLFDEYELELLLSGMPEIDVSDWIKNTEYTSGYEREDPVIQWFWEVVEDITQEERVLLLQFVTGSSRVPHGGFANIMGGSGLQNFTIAAVPYTPNLLPTSSTCINMLKLPEYPSKEILKDRLLVALHCGSYGYTMA", "values": [{"measurement": "binding", "setting": "[3]", "value": "binds"}]}
{"molecule": "HACE1, endogenous (enzyme, UniProt Q8IYU2 1-909) MERAMEQLNRLTRSLRRARTVELPEDNETAVYTLMPMVMADQHRSVSELLSNSKFDVNYAFGRVKRSLLHIAANCGSVECLVLLLKKGANPNYQDISGCTPLHLAARNGQKKCMSKLLEYSADVNICNNEGLTAIHWLAVNGRTELLHDLVQHVSDVDVEDAMGQTALHVACQNGHKTTVQCLLDSGADINRPNVSGATPLYFACSHGQRDTAQILLLRGAKYLPDKNGVTPLDLCVQGGYGETCEVLIQYHPRLFQTIIQMTQNEDLRENMLRQVLEHLSQQSESQYLKILTSLAEVATTNGHKLLSLSSNYDAQMKSLLRIVRMFCHVFRIGPSSPSNGIDMGYNGNKTPRSQVFKPLELLWHSLDEWLVLIATELMKNKRDSTEITSILLKQKGQDQDAASIPPFEPPGPGSYENLSTGTRESKPDALAGRQEASADCQDVISMTANRLSAVIQAFYMCCSCQMPPGMTSPRFIEFVCKHDEVLKCFVNRNPKIIFDHFHFLLECPELMSRFMHIIKAQPFKDRCEWFYEHLHSGQPDSDMVHRPVNENDILLVHRDSIFRSSCEVVSKANCAKLKQGIAVRFHGEEGMGQGVVREWFDILSNEIVNPDYALFTQSADGTTFQPNSNSYVNPDHLNYFRFAGQILGLALNHRQLVNIYFTRSFYKHILGIPVNYQDVASIDPEYAKNLQWILDNDISDLGLELTFSVETDVFGAMEEVPLKPGGGSILVTQNNKAEYVQLVTELRMTRAIQPQINAFLQGFHMFIPPSLIQLFDEYELELLLSGMPEIDVSDWIKNTEYTSGYEREDPVIQWFWEVVEDITQEERVLLLQFVTGSSRVPHGGFANIMGGSGLQNFTIAAVPYTPNLLPTSSTCINMLKLPEYPSKEILKDRLLVALHCGSYGYTMA", "values": [{"measurement": "binding", "setting": "[4]", "value": "binds weakly"}, {"measurement": "binding", "setting": "[5]", "value": "binds"}]}
{"molecule": "MBP‐His‐tagged cyclin C (natural protein, human, Cyclin C, human; the cDNA of CCNC cloned into pSJ8 (pET21a derivative, MBP-His fusion vector); also called cyclin C‐MBP‐His; source: Escherichia coli BL21, purified (Ni‐NTA agarose beads)) MAGNFWQSSHYLQWILDKQDLLKERQKDLKFLSEEEYWKLQIFFTNVIQALGEHLKLRQQVIATATVYFKRFYARYSLKSIDPVLMAPTCVFLASKVEEFGVVSNTRLIAAATSVLKTRFSYAFPKEFPYRMNHILECEFYLLELMDCCLIVYHPYRPLLQYVQDMGQEDMLLPLAWRIVNDTYRTDLCLLYPPFMIALACLHVACVVQQKDARQWFAELSVDMEKILEIIRVILKLYEQWKNFDERKEMATILSKMPKPKPPPNSEGEQGPNGSQNSSYSQS", "values": [{"measurement": "binding", "setting": "[6]", "value": "no binding"}]}
